Results of single-concentration screens

T. brucei: 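Whole-parasite assay of Trypanosoma brucei over 72 hours; the read-out is not stated. Tested at 30 µM. The record gives no direction; compounds that gave an IC50 in retests scored well above the rest, so higher reads as stronger inhibition. Values scatter widely below zero; nearly all retest evidence comes from the higher of the two concentrations used. Of about 64,000 compounds tested this way, about 940 (1.5%) reached 50% or more in at least one test.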
Toxoplasma: 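Assay of Toxoplasma gondii numbers, read through their beta-galactosidase reporter with a colour substrate. Compounds at 10 µM. The record gives no direction; the compounds picked for IC50 retests had high values, so higher reads as fewer parasites. About 67,000 compounds were tested under these conditions; 0.38% (about 260) showed 50% or more at least once.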

Values are the deposited “Percent Effect”, in %.
How 0% and 100% were set is not recorded. Most values in the screen are low, and negative values occur.
This is an unselected part of the compounds tested.
A dash means the value is not listed here; it may have been measured.

SMILES,T. brucei,Toxoplasma
C=C(C)COc1cccc(CNC(CC)c2ccnn2C)c1 (stereo not given),-11.89%,-13.63%
O=C(O)C(F)(F)F.O=C(O)C(F)(F)F.O=C(O)C(F)(F)F.O=C(O)c1c(-c2cncnc2)ncc2c1CCN(Cc1cccnc1)C2,-22.43%,17.65%
CC(C)[C@H](NC(=O)Cn1nc2c(cc1=O)CCCC2)C(=O)O,8.033%,15.09%
CCS(=O)(=O)NCc1cccnc1N1CCCC(O)C1 (stereo not given),-26.58%,-2.336%
CNS(=O)(=O)CC1CCCN1c1ccccn1 (stereo not given),-20.24%,-3.308%
O=S1(=O)CCC(S(=O)(=O)c2cccc(S(=O)(=O)N3CCCC3)c2)C1 (stereo not given),-21.92%,-
CCc1nc(CN2CCN(c3ncnc4cc(F)ccc34)CC2)no1,-21.19%,16.21%
CN(C)c1ncnc2c1CCN(c1cc(C(F)(F)F)ncn1)CC2,6.601%,5.542%
CSCC(C)(O)CNC(=O)c1cc(F)ccc1Br (stereo not given),-24.05%,7.512%
CO[C@@H]1CCN(c2ncc(F)cn2)[C@H]1Cc1cnn(C)c1,-73.2%,0.7882%
CCCn1ccnc1CNC(=O)C1COc2cc(OC)ccc2C1 (stereo not given),-18.93%,-31.39%
O=C(Nc1ccc(Cl)cc1C(=O)NCCN1CCOCC1)c1ccco1,-,-20.54%
Cc1cc(C)c(C(=O)NCCNc2ncnc3ccccc23)c(=O)[nH]1,-237.5%,-3.936%
Cc1ncc2c(n1)CN(Cc1nc(-c3ccco3)oc1C)CC2,-14.39%,-4.924%
[H][C@@]12CS(=O)(=O)C[C@]1([H])N(C(=O)c1cc(-c3cccn3C)n[nH]1)CCN2CC,-16.48%,-3.313%
CN(CCCc1cc(-c2ccc(F)cc2)n[nH]1)C(=O)CCn1cncn1,-11.4%,-5.681%
[H][C@]12CN(Cc3cccc(C)c3)C(=O)[C@@]1([H])CN(S(=O)(=O)CC)C2,0.2739%,-8.477%
CCOc1ccc(NC(=O)Nc2cc(N3CCCCC3)ncn2)cc1,6.449%,18.53%
CC(C)c1cc(C(=O)N2CCN(c3ncc4c(n3)CCOC4)CC2)on1,-0.1876%,-18.74%
O=C(C(NCc1cccc(F)c1F)c1ccccc1)N1CCOCC1 (stereo not given),-37.4%,-1.199%
O=C(NCC(O)c1ccc(Cl)c(F)c1)NC1CC=CC1 (stereo not given),3.773%,-0.1136%
COc1ccc(C(CO)NC(=O)Nc2cccc(C#N)c2)cc1 (stereo not given),2.685%,-1.962%
Cc1nc[nH]c1CN1CCc2nc3scc(C)c3c(=O)n2CC1.Cl,-39.02%,-1.99%
O=C1CC(c2ccc(C(=O)O)cc2)c2ncn(-c3ccccc3Cl)c2N1 (stereo not given),-10.54%,7.908%
COCCC1(C(=O)O)CCN(c2cc(C)c3ccccc3n2)CC1,-96.83%,7.907%
CCn1nccc1CN(C)C(=O)Cn1nc(C)cc1C,-13.14%,12.9%
CC(NCc1ccc(OCC(N)=O)cc1)c1ccc2c(c1)CCCC2 (stereo not given),58.39%,30.9%
Cc1cnn(CC2CCCN2CCCc2nc3ccccc3o2)c1 (stereo not given),26.64%,3.985%
[H][C@@]12C[C@@H](c3nnc(C4CC4)o3)O[C@]1([H])CN(C(=O)Cc1ccsc1)C2,-50.57%,1.183%
CCc1c(C)nc2cc(C3CCN(CCc4ccccc4)C3)nn2c1O (stereo not given),58.63%,-14.23%
CCN1CC2(CC1=O)CN(Cc1ccncc1)CCN(C(=O)C(C)C)C2.O=C(O)C(F)(F)F.O=C(O)C(F)(F)F (stereo not given),-22.83%,78.24%
O=C(c1cc2c(s1)CCC2)N1CCN(c2cnccn2)CC1,-32.19%,-12.52%
CC(C)c1nc(C2CCCN(c3nccc(N4CCCC4)n3)C2)no1 (stereo not given),32.64%,-7.271%
CC(=O)N1CCN(c2cc(N(C)C)cnn2)CC1,-4.588%,-2.831%
Cc1cccc(C)c1OCCCN1CCC(n2cncn2)CC1,-44.74%,-1.333%
COCc1nc(C(=O)N2CCCC(n3cccn3)C2)cs1 (stereo not given),9.8%,2.002%
COCc1nc(CNc2cccc(-c3csc(C)n3)c2)cs1,-26.46%,1.641%
Cc1nn(C)cc1Cn1cc(Cl)c(N)n1,9.677%,-0.7638%
CN(C)C(=O)N1CCN(C(=O)c2cccc(Cl)c2)CC2(CNC(=O)C2)C1 (stereo not given),-9.459%,-1.26%
c1cc2n(n1)CC(CNCc1ccc(OC3CCCCC3)nc1)CN2 (stereo not given),28.54%,9.952%
O=C(O)C(F)(F)F.O=C(O)C(F)(F)F.[H][C@@]12CN(Cc3cccc(F)c3)CCC[C@]1(C(=O)O)CN(CCOC)C2,-31.35%,-0.8869%
CC(c1ccco1)N(C(=O)Cn1nc2n(c1=O)CCCCC2)C1CC1 (stereo not given),-25.57%,-3.056%
Cc1nc(C2CCCN(C(=O)c3cc4c(s3)CCCC4)C2)no1 (stereo not given),-19.63%,-4.754%
Cc1csc(C(C)(C)NCc2ncc(-c3ccc(F)cc3)o2)n1,-12.59%,-9.738%
[H][C@@]12CN(CCc3ccccc3)C[C@]1([H])OCCN2c1ncccn1,0.4649%,-6.227%
O=C(O)C(F)(F)F.[H][C@@]12CO[C@@H](CNC(=O)c3nccn3C)[C@]1([H])CCN(CC1CC1)C2,-27.72%,-16.16%
CC(C)C(=O)N1CCC([C@@H]2C[C@H](C(F)F)n3ncnc3N2)CC1,-14.08%,-1.374%
CS(=O)(=O)N1CCC(Oc2ccc(C(=O)N3CCSCC3)cc2Cl)CC1,28.41%,1.512%
O=C(CNC(=O)Nc1cccc(Cl)c1SC(F)F)NC1CC1,-48.57%,-2.908%
Cn1ncnc1NS(=O)(=O)c1ccc(F)cc1Cl,11.86%,14.62%
COCCN(C)C(=O)c1nc2c(s1)CCCN2S(C)(=O)=O,-48.9%,-6.648%
Cn1cc(C(C)(O)CNc2ccc(Cl)c(C#N)n2)cn1 (stereo not given),-14.06%,4.468%
Cc1nn(C2CCS(=O)(=O)C2)c(O)c1Cc1cccc(Cl)c1 (stereo not given),-33.22%,-4.701%
COc1ccc(NC(=O)c2ccccc2NCc2ncnn2C)cc1,-20.78%,6.964%
CCc1nc(CNc2ccc(-c3nc(C4CC4)no3)cn2)no1,3.342%,4.132%
COc1cc(Br)c(CNC2CCCNC2=O)cc1OC.Cl (stereo not given),-30.32%,9.732%
CN1N=C(C(=O)NCCc2csc(-c3ccccc3)n2)CCC1=O,11.84%,-6.028%
CC(Cn1cccn1)NC(=O)NCCCN1CCCCCC1=O (stereo not given),-38.15%,-7.179%
O=c1[nH]nc2c(S(=O)(=O)N3CCCC3)cccn12,-13.94%,-1.631%
N#Cc1c(Cl)nsc1NCc1ccc(N2CCSCC2)cc1,2.777%,29.1%
CC(C(N)=O)S(=O)(=O)Cc1cc(Cl)c2c(c1)OCO2 (stereo not given),-36.3%,-6.089%
CN(Cc1ccc(N2CCCCC2)cc1)Cc1noc(C(C)(C)C)n1,-19.61%,-30.02%
O=C(O)C1(Oc2cccc(F)c2)CCN(c2ccncc2)CC1,-14.96%,-0.4055%
Brc1ccc(CN2CCC(NCc3ncc[nH]3)CC2)cc1,-21.24%,-3.697%
CCC(NC(=O)NCc1ccoc1C)c1c(C)nn(C)c1C (stereo not given),-43.1%,1.447%
Cc1cc(CN2CCC(CNC(=O)CN3CCCCCC3)C2)[nH]n1 (stereo not given),-252.3%,2.426%
Cc1nnc(CCNC2CCN(c3ncnc4c(C)csc34)CC2)s1,47.27%,9.577%
Cc1csc(C(C#N)C(=O)NCc2cccnc2)n1 (stereo not given),-27.16%,-13.8%
CCOc1ccccc1-n1c(-c2cn(CC)nc2C)n[nH]c1=O,-11.15%,-8.24%
COc1nn(C)c2c1CCCN(C(=O)c1cscn1)C2,-45.63%,-27.14%
Cc1[nH]ccc1C(=O)N1CCOCC12CCCC2,-9.484%,4.628%
[H][C@@]12CN(Cc3ccco3)C[C@]1([H])OCCN2c1ccnc(N(C)C)n1,-15.08%,-9.182%
C/C(=C\c1ccco1)CN(C)C(C)c1ccccn1 (stereo not given),-19.83%,3.45%

The last 6 entries again:

* Cc1csc(C(C#N)C(=O)NCc2cccnc2)n1 (stereo not given) : T. brucei: -27.16%; Toxoplasma: -13.8%
* CCOc1ccccc1-n1c(-c2cn(CC)nc2C)n[nH]c1=O : T. brucei: -11.15%; Toxoplasma: -8.24%
* COc1nn(C)c2c1CCCN(C(=O)c1cscn1)C2 : T. brucei: -45.63%; Toxoplasma: -27.14%
* Cc1[nH]ccc1C(=O)N1CCOCC12CCCC2 : T. brucei: -9.484%; Toxoplasma: 4.628%
* [H][C@@]12CN(Cc3ccco3)C[C@]1([H])OCCN2c1ccnc(N(C)C)n1 : T. brucei: -15.08%; Toxoplasma: -9.182%
* C/C(=C\c1ccco1)CN(C)C(C)c1ccccn1 (stereo not given) : T. brucei: -19.83%; Toxoplasma: 3.45%

Data taken from ChEMBL document CHEMBL3988442, “University of Dundee, Small-Polar-MMV Screening Library” (2021).